Results are given in words; binding and its absence hold for the method and conditions named. In cells and extracts the contact can be indirect. Some results given as binding are weak or reduced against the parent protein; the word gives no strength.
Biological target: T1, period circadian protein 2 (human (endogenous in AS-BMSCs)) (UniProt O15055)
T1 sequence: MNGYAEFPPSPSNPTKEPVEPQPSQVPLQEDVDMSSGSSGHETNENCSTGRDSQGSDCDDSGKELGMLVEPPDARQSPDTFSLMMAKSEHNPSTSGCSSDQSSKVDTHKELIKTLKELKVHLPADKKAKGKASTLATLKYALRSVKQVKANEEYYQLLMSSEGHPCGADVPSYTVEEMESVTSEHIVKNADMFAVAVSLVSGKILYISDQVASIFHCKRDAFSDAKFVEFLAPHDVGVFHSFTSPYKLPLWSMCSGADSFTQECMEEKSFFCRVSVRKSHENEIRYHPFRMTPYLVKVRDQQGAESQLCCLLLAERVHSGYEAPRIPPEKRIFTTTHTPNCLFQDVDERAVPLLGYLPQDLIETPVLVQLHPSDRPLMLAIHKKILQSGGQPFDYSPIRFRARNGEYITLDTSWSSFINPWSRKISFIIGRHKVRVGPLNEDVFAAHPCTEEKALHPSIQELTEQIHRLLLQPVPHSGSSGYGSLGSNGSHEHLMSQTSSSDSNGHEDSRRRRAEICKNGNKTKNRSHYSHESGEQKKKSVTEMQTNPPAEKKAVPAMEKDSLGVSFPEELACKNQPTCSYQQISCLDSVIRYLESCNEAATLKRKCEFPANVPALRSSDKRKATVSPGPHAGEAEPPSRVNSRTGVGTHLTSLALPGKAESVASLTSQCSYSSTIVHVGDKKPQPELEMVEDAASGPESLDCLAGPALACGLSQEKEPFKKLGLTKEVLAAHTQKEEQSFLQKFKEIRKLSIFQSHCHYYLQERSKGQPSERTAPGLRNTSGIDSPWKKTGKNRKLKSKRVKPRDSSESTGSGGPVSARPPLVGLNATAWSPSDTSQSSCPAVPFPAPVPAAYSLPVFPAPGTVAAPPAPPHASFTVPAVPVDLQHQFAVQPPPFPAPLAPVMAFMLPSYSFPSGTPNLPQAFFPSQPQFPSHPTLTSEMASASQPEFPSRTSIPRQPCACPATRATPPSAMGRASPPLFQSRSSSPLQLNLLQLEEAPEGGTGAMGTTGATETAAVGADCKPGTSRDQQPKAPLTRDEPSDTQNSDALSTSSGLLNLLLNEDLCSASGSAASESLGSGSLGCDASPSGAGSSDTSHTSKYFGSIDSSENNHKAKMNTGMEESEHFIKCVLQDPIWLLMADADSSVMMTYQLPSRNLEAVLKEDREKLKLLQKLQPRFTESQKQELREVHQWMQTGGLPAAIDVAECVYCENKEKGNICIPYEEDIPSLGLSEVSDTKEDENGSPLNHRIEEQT
Assay: co-IP; AS-BMSC lysate (100 mM Tris-HCl pH 7.4, 150 mM NaCl, 10% glycerol, 0.5% Triton X-100, protease inhibitors), precleared with protein A/G Sepharose; PER2 antibody overnight at 4 °C, protein A/G Sepharose beads 1 h, 4 washes; Western blot with PER2 and Wnt7b antibodies

B1: Wnt7b (protein, UniProt P56706 25-349)
chain: ALSSVVALGANIICNKIPGLAPRQRAICQSRPDAIIVIGEGAQMGINECQYQFRFGRWNCSALGEKTVFGQELRVGSREAAFTYAITAAGVAHAVTAACSQGNLSNCGCDREKQGYYNQAEGWKWGGCSADVRYGIDFSRRFVDAREIKKNARRLMNLHNNEAGRKVLEDRMQLECKCHGVSGSCTTKTCWTTLPKFREVGHLLKEKYNAAVQVEVVRASRLRQPTFLRIKQLRSYQKPMETDLVYIEKSPNYCEEDAATGSVGTQGRLCNRTSPGADGCDTMCCGRGYNTHQYTKVWQCNCKFHWCCFVKCNTCSERTEVFTCK
- binding: binds
